Measured values from ChEMBL document CHEMBL4316593 (Eur J Med Chem, 2019).
The source gives many values for each of these; only a part stands here.

Assays:
Assay type in all cases: cell-based
Conditions in all cases: U-87MG ATCC
[1] = Inhibition of RTK/PI3K/AKT/mTOR signaling in human U87 cells assessed as down regulation of TIPARP gene expression at cytotoxic IC50 measured after 48 hrs relative to control
[2] = Inhibition of RTK/PI3K/AKT/mTOR signaling in human U87 cells assessed as down regulation of EPG5 gene expression at cytotoxic IC50 measured after 48 hrs relative to control
[3] = Inhibition of RTK/PI3K/AKT/mTOR signaling in human U87 cells assessed as down regulation of IRF7 gene expression at cytotoxic IC50 measured after 48 hrs relative to control
[4] = Inhibition of RTK/PI3K/AKT/mTOR signaling in human U87 cells assessed as down regulation of MAP1LC3B gene expression at cytotoxic IC50 measured after 48 hrs relative to control
[5] = Inhibition of RTK/PI3K/AKT/mTOR signaling in human U87 cells assessed as down regulation of TBCCD1 gene expression at cytotoxic IC50 measured after 48 hrs relative to control
[6] = Inhibition of RTK/PI3K/AKT/mTOR signaling in human U87 cells assessed as down regulation of RANBP10 gene expression at cytotoxic IC50 measured after 48 hrs relative to control
[7] = Inhibition of RTK/PI3K/AKT/mTOR signaling in human U87 cells assessed as down regulation of WDR44 gene expression at cytotoxic IC50 measured after 48 hrs relative to control
[8] = Inhibition of RTK/PI3K/AKT/mTOR signaling in human U87 cells assessed as down regulation of MTMR14 gene expression at cytotoxic IC50 measured after 48 hrs relative to control
[9] = Inhibition of RTK/PI3K/AKT/mTOR signaling in human U87 cells assessed as down regulation of AP5Z1 gene expression at cytotoxic IC50 measured after 48 hrs relative to control
[10] = Inhibition of RTK/PI3K/AKT/mTOR signaling in human U87 cells assessed as down regulation of ZFAND3 gene expression at cytotoxic IC50 measured after 48 hrs relative to control
[11] = Inhibition of RTK/PI3K/AKT/mTOR signaling in human U87 cells assessed as up regulation of NUPR1 gene expression at cytotoxic IC50 measured after 48 hrs relative to control
[12] = Inhibition of RTK/PI3K/AKT/mTOR signaling in human U87 cells assessed as up regulation of IGFBP6 gene expression at cytotoxic IC50 measured after 48 hrs relative to control
[13] = Inhibition of RTK/PI3K/AKT/mTOR signaling in human U87 cells assessed as up regulation of OBSCN gene expression at cytotoxic IC50 measured after 48 hrs relative to control
[14] = Inhibition of RTK/PI3K/AKT/mTOR signaling in human U87 cells assessed as up regulation of DNAJC22 gene expression at cytotoxic IC50 measured after 48 hrs relative to control
[15] = Inhibition of RTK/PI3K/AKT/mTOR signaling in human U87 cells assessed as up regulation of stathmin 3 gene expression at cytotoxic IC50 measured after 48 hrs relative to control
[16] = Inhibition of RTK/PI3K/AKT/mTOR signaling in human U87 cells assessed as up regulation of twinkle mtDNA helicase gene expression at cytotoxic IC50 measured after 48 hrs relative to control
[17] = Inhibition of RTK/PI3K/AKT/mTOR signaling in human U87 cells assessed as up regulation of CTD small phosphatase like gene expression at cytotoxic IC50 measured after 48 hrs relative to control
[18] = Inhibition of RTK/PI3K/AKT/mTOR signaling in human U87 cells assessed as up regulation of TNFAIP3 interacting protein 1 gene expression at cytotoxic IC50 measured after 48 hrs relative to control
[19] = Inhibition of RTK/PI3K/AKT/mTOR signaling in human U87 cells assessed as up regulation of methylthioadenosine phosphorylase gene expression at cytotoxic IC50 measured after 48 hrs relative to control
[20] = Inhibition of RTK/PI3K/AKT/mTOR signaling in human U87 cells assessed as up regulation of zinc finger protein 146 gene expression at cytotoxic IC50 measured after 48 hrs relative to control
[21] = Inhibition of RTK/PI3K/AKT/mTOR signaling in human U87 cells assessed as up regulation of zinc finger protein 219 gene expression at cytotoxic IC50 measured after 48 hrs relative to control
[22] = Inhibition of RTK/PI3K/AKT/mTOR signaling in human U87 cells assessed as up regulation of jagged 1 gene expression at cytotoxic IC50 measured after 48 hrs relative to control
[23] = Inhibition of RTK/PI3K/AKT/mTOR signaling in human U87 cells assessed as up regulation of rhophilin Rho GTPase binding protein 2 gene expression at cytotoxic IC50 measured after 48 hrs relative to control
[24] = Inhibition of RTK/PI3K/AKT/mTOR signaling in human U87 cells assessed as up regulation of hypoxia up-regulated 1 gene expression at cytotoxic IC50 measured after 48 hrs relative to control
[25] = Inhibition of RTK/PI3K/AKT/mTOR signaling in human U87 cells assessed as up regulation of WDR45B gene expression at cytotoxic IC50 measured after 48 hrs relative to control
[26] = Inhibition of RTK/PI3K/AKT/mTOR signaling in human U87 cells assessed as up regulation of RBMX gene expression at cytotoxic IC50 measured after 48 hrs relative to control
[27] = Inhibition of RTK/PI3K/AKT/mTOR signaling in human U87 cells assessed as up regulation of NUP88 gene expression at cytotoxic IC50 measured after 48 hrs relative to control
[28] = Inhibition of RTK/PI3K/AKT/mTOR signaling in human U87 cells assessed as up regulation of LARS gene expression at cytotoxic IC50 measured after 48 hrs relative to control
[29] = Inhibition of RTK/PI3K/AKT/mTOR signaling in human U87 cells assessed as up regulation of CD276 gene expression at cytotoxic IC50 measured after 48 hrs relative to control
[30] = Inhibition of RTK/PI3K/AKT/mTOR signaling in human U87 cells assessed as up regulation of SHC1 gene expression at cytotoxic IC50 measured after 48 hrs relative to control
[31] = Inhibition of RTK/PI3K/AKT/mTOR signaling in human U87 cells assessed as up regulation of GNAI1 gene expression at cytotoxic IC50 measured after 48 hrs relative to control
[32] = Inhibition of RTK/PI3K/AKT/mTOR signaling in human U87 cells assessed as up regulation of ATP2B1 gene expression at cytotoxic IC50 measured after 48 hrs relative to control

CC(=O)C(=NNc1ccccc1C#N)C(C)=O
log2FC [1]: -1.77
log2FC [2]: -1.53
log2FC [3]: -1.44
log2FC [4]: -1.27
log2FC [5]: -1.1
log2FC [6]: -0.838
log2FC [7]: -0.815
log2FC [8]: -0.756
log2FC [9]: -0.7
log2FC [10]: -0.418
log2FC [11]: 4.87
log2FC [12]: 2.65
log2FC [13]: 2.19
log2FC [14]: 1.97
log2FC [15]: 1.36
log2FC [16]: 1.23
log2FC [17]: 1.18
log2FC [18]: 1.09
log2FC [19]: 1.03
log2FC [20]: 1.02
log2FC [21]: 0.962
log2FC [22]: 0.956
log2FC [23]: 0.865
log2FC [24]: 0.667
log2FC [25]: 0.621
log2FC [26]: 0.621
log2FC [27]: 0.579
log2FC [28]: 0.57
log2FC [29]: 0.539
log2FC [30]: 0.52
log2FC [31]: 0.439
log2FC [32]: 0.423
